According to paper PMC10927582:
No constants are given. Whether binding was seen depends on the method and setting. Binding seen in cells or lysates may run through a third protein. Some entries that bind do so weakly or less than the wild type. For some assays here: Tags and fused reporters may be left off the sequences shown.

Protein sequences, listed by entry. Tags and fused reporters are not part of them. Lines headed by an entry give the natural chain unless they say otherwise; changes in a name come on top. Chains listed by the source or under a name are the forms on record and can include a tag or linker. Residues count along the entry.
PINK1-HA R543D (Q9BXM7, form named): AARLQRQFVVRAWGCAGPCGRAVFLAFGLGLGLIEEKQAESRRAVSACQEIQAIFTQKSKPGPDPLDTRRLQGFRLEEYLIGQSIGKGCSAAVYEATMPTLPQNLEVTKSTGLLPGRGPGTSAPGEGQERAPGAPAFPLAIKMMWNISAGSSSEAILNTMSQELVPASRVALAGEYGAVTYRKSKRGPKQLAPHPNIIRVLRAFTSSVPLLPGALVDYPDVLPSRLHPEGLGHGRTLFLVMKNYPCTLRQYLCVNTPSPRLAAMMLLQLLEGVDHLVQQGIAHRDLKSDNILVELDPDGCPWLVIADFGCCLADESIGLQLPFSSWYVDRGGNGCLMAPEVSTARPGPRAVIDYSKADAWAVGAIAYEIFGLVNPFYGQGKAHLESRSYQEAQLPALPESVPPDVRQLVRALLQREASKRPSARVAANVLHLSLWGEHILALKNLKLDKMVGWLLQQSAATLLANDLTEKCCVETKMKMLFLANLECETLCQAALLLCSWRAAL
UniProt Q3ZCQ8, residues 45-353: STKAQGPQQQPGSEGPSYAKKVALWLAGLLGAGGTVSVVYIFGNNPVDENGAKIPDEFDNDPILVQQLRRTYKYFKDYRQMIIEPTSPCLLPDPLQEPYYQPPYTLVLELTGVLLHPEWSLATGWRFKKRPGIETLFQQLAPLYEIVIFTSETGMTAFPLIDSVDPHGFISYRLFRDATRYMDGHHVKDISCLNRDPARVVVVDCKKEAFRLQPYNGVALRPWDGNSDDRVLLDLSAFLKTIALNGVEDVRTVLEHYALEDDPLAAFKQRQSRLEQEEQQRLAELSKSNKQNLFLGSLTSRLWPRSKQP
UniProt Q15388: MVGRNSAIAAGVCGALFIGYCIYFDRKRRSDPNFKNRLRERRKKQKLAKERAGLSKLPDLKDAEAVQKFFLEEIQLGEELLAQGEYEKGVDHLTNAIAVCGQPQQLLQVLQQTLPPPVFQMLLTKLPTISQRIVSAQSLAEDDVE

T1: Tim23-FLAG (UniProt O14925)
T1 sequence: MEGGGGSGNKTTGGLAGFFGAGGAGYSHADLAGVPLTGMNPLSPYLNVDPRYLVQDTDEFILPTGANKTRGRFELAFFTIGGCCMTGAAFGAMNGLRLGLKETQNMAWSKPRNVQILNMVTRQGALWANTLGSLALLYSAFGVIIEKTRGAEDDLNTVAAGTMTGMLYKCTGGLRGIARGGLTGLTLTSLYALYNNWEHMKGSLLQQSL


What was measured:
[1] = biological target: PINK1-HA R543D (human) (UniProt Q9BXM7); assay: co-IP; HA immunocapture (anti-HA magnetic beads) from isolated mitochondria of U2OS PINK1 KO cells transfected with PINK1-HA (WT or mutants); 20 µM CCCP 4 h or ΔOTC for 36 h; elution with HA peptide, 0.2% digitonin; immunoblot
[2] = biological target: T1, Tim23-FLAG; assay: co-IP; FLAG immunocapture from isolated mitochondria of HEK293T cells transfected with Tim50-FLAG or Tim23-FLAG; 20 µM CCCP 4 h; elution with FLAG peptide; immunoblot
[3] = biological target: Tim50-FLAG (UniProt Q3ZCQ8); assay: co-IP; Tim50-FLAG immunopurification in the presence of the Tom20-binding deficient PINK1 mutants (SI Appendix, Fig. S9)
[4] = biological target: Tim50-FLAG (UniProt Q3ZCQ8); assay: co-IP; FLAG immunocapture from isolated mitochondria of HEK293T cells transfected with Tim50-FLAG or Tim23-FLAG; 20 µM CCCP 4 h; elution with FLAG peptide; immunoblot
[5] = biological target: Tim50-FLAG (UniProt Q3ZCQ8); assay: co-IP; FLAG immunocapture from isolated mitochondria of WT U2OS cells transfected with Tom22-FLAG or Tim50-FLAG; 20 µM CCCP or DMSO 4 h; elution with FLAG peptides; immunoblot

Molecule | binding [1] | binding [2] | binding [3] | binding [4] | binding [5]
Tom20 subunit of the TOM complex, endogenous (from UniProt Q15388 1-145) | binds |  |  |  | 
Tim23 subunit of the TIM23 complex, endogenous (protein, UniProt O14925 1-209) MEGGGGSGNKTTGGLAGFFGAGGAGYSHADLAGVPLTGMNPLSPYLNVDPRYLVQDTDEFILPTGANKTRGRFELAFFTIGGCCMTGAAFGAMNGLRLGLKETQNMAWSKPRNVQILNMVTRQGALWANTLGSLALLYSAFGVIIEKTRGAEDDLNTVAAGTMTGMLYKCTGGLRGIARGGLTGLTLTSLYALYNNWEHMKGSLLQQSL |  |  | binds | binds | binds

Other lines, results leading:

binding [1] | binding [2] | binding [3] | binding [4] | binding [5] | Molecule
 | binds |  |  |  | Tim50 subunit of the TIM23 complex, endogenous (from UniProt Q3ZCQ8 45-353)
 | no binding |  | no binding | no binding | Tim22 subunit of the TIM22 translocase, endogenous (protein, UniProt Q9Y584 1-194) MAAAAPNAGGSAPETAGSAEAPLQYSLLLQYLVGDKRQPRLLEPGSLGGIPSPAKSEEQKMIEKAMESCAFKAALACVGGFVLGGAFGVFTAGIDTNVGFDPKDPYRTPTAKEVLKDMGQRGMSYAKNFAIVGAMFSCTECLIESYRGTSDWKNSVISGCITGGAIGFRAGLKAGAIGCGGFAAFSAAIDYYLR
